Values from PubChem BioAssay AID1508587 (Peter MacCallum Cancer Centre, 2020)
The deposit covers about 1,600 reagents; shown is a random part of them. Over the whole deposit, 623 (39%) are marked active. 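Calls are for each duplex; lactate ratios contain extreme outliers.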 Entries without a mark were called inactive. The numbers tell different reagents against one gene apart. Not all columns of the deposit are shown. No sequences are given here.

Purpose: 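Retest of knockdowns boosting BRAF inhibitor action on lactate release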 (follow-up of hits)
System: human WM266.4 melanoma cells with a BRAF V600 mutation
Reagent: single siRNA against human genes, 25 nM
Duration: 96 h
Treatment: vemurafenib 300 nM (about IC25), given 48 h after transfection for 48 h
Detection: 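Medium lactate read by absorbance over DAPI-counted nuclei; ratio with versus without vemurafenib, set against non-targeting siRNA, averaged over 2 replicates; cell number also recorded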
Reading the numbers: lactate per cell, drug vs no drug: higher = less drug-induced drop in lactate per cell
Hit rule: 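a duplex is active when its lactate-per-cell ratio with versus without drug falls under 0.55, i.e. 2 SD below non-targeting; a gene is confirmed if 2 or more of 4 duplexes pass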

DHRS11 #1 scored lactate per cell, drug vs no drug 0.64.
Depletion of DHRS11 #2 came out at: lactate per cell, drug vs no drug 0.78.
With knock-down of DHRS11 #3, the record shows lactate per cell, drug vs no drug 0.78.
DHRS11 #4 scored lactate per cell, drug vs no drug 0.56.
Knock-down of PYROXD2 #1 gave: lactate per cell, drug vs no drug 0.62.
PYROXD2 #2 scored lactate per cell, drug vs no drug 0.72.
For PYROXD2 #3, the values are lactate per cell, drug vs no drug 0.36 (active).
For PYROXD2 #4 the deposit lists lactate per cell, drug vs no drug 0.42 (active).
TRAM1 #1 showed lactate per cell, drug vs no drug 0.59.
TRAM1 #2 gave lactate per cell, drug vs no drug 0.66.
Knock-down of TRAM1 #3 gave: lactate per cell, drug vs no drug 0.46 (active).
Silencing of TRAM1 #4 gave: lactate per cell, drug vs no drug 0.39 (active).

2 entries already listed, arranged by “lactate per cell, drug vs no drug”, descending.
TRAM1 #2 — lactate per cell, drug vs no drug = 0.66
TRAM1 #3 — lactate per cell, drug vs no drug = 0.46 (active)
